The text below walks through data of paper PMC12738564.

Chains of the proteins cited; added tags and fusions are not shown. Residues count along the entry.
UniProt O14514, residues 31-1584: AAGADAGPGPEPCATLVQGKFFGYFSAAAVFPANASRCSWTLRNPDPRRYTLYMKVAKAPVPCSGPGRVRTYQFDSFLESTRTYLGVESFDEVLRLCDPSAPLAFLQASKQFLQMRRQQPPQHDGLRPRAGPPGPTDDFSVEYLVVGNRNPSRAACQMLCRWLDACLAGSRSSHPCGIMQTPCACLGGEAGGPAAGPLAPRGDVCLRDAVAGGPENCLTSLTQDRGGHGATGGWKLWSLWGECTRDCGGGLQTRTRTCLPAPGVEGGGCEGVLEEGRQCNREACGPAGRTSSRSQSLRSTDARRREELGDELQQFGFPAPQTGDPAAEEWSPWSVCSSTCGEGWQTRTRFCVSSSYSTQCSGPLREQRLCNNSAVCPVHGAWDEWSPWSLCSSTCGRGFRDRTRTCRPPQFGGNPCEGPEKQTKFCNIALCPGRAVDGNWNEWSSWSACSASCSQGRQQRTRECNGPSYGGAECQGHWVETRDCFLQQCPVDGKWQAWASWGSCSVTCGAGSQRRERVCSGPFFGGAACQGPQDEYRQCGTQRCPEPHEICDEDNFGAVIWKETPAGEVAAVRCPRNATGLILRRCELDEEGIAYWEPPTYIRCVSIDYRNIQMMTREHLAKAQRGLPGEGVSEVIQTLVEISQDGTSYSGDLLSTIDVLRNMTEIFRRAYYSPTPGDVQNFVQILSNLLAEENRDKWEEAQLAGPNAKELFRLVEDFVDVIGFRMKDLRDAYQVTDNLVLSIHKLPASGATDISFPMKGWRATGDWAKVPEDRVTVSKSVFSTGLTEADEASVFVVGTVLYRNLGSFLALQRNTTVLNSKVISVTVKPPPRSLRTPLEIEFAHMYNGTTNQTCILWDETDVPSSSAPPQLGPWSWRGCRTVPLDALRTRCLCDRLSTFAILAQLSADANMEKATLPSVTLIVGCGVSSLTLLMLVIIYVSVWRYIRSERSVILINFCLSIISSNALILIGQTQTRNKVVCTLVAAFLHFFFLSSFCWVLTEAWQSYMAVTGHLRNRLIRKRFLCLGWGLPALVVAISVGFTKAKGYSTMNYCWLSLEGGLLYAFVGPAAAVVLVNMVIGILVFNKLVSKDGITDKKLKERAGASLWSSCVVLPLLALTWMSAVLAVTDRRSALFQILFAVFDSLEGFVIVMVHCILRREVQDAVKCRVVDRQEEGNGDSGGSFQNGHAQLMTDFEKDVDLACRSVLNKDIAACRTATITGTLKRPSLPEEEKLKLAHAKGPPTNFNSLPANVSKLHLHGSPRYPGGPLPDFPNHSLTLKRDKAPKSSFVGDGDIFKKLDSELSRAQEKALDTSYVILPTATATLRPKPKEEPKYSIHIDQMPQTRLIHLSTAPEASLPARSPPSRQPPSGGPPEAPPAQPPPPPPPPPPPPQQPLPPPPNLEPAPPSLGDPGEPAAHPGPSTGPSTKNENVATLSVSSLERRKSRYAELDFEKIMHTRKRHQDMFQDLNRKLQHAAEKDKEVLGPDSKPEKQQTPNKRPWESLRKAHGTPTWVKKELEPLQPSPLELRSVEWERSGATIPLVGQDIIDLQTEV
UniProt Q00987: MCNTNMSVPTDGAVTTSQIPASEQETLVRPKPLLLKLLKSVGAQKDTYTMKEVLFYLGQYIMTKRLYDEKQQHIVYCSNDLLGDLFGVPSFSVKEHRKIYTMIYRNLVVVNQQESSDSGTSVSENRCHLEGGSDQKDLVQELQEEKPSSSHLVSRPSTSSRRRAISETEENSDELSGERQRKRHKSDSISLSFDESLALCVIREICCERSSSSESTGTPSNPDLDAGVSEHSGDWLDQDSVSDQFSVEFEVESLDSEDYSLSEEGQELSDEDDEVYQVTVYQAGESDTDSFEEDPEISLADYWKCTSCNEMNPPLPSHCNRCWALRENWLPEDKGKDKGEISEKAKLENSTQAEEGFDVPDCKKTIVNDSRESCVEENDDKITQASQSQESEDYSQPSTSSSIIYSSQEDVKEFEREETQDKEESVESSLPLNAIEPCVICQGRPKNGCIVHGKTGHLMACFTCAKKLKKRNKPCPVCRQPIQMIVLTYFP

For the assay, the target named is Brain Angiogenesis Inhibitor 1 (BAI1, ADGRB1), endogenous in hNSC (human (endogenous in hNSC)) (UniProt O14514). Put plainly: proximity ligation; both proteins endogenous in hNSC (BAI1 WT and BAI1 KO), cells treated with C1q or growth medium, fixed with 4% PFA, permeabilised; Duolink In Situ PLA, punctae per cell.

No constants are given. Whether binding was seen depends on the method and setting. Binding seen in cells or lysates may run through a third protein. Some binding calls cover weakened binding; strength is not graded here.

As for “MDM2, endogenous in hNSC (from UniProt Q00987 1-491)”, the binding result is “binds”.
